From the odorant receptor screen of Mainland et al. (2015)
“And” between values parts separate entries of the source, which are not always exact repeats. Equal values may be shown once. Some of the results follow. Single wells; the ratio to wells without odorant was worked out here, and repeats agree poorly.

Legend:
Experiment in all cases: odorant receptor activation (CRE luciferase / Renilla) (fold of no-odor wells); higher = more activation
Details in all cases: 100 µM
OR2A2 F280L clone 1541 = system: OR2A2 F280L clone 1541
OR2A25 clone 1387 = system: OR2A25 clone 1387
OR2A4 clone 1386 = system: OR2A4 clone 1386
OR2A42 clone 1565 = system: OR2A42 clone 1565
OR2A5 clone 1437 = system: OR2A5 clone 1437
OR2A7 clone 1077 = system: OR2A7 clone 1077
OR2A7 clone 1543 = system: OR2A7 clone 1543
OR2AE1 I77T clone 1079 = system: OR2AE1 I77T clone 1079
OR2AG1 clone 1112 = system: OR2AG1 clone 1112
OR2A2 clone 1476 = system: OR2A2 clone 1476

Row | SMILES | odorant receptor activation (OR2A2 F280L clone 1541) | odorant receptor activation (OR2A25 clone 1387) | odorant receptor activation (OR2A4 clone 1386) | odorant receptor activation (OR2A42 clone 1565) | odorant receptor activation (OR2A5 clone 1437) | odorant receptor activation (OR2A7 clone 1077) | odorant receptor activation (OR2A7 clone 1543) | odorant receptor activation (OR2AE1 I77T clone 1079) | odorant receptor activation (OR2AG1 clone 1112) | odorant receptor activation (OR2A2 clone 1476)
1 | CCCCCCC=O [heptaldehyde] | 1.02 and 1.49 | 0.997 and 0.814 | 0.877 and 0.879 | 0.976 | 1.17 and 0.86 | 0.549 and 1.06 | 0.972 and 0.756 | 2.29 and 1.11 | 0.622 and 1.37 | 
2 | O=C1CCCCC1 [Cyclohexanone] |  | 1.02 | 0.771 |  | 0.98 | 0.412 |  | 1.56 | 0.553 | 0.758 and 1.09
3 | CCCCCCCCC=O [nonyl aldehyde] | 0.943 | 1.05 | 0.978 | 1.1 | 0.999 | 0.858 | 0.866 | 0.956 | 0.921 | 0.989
4 | C=C(C)C1CCC2=CC(=O)CC(C)C2(C)C1 (configuration not stated) [amyl laurate] |  |  |  | 1.52 |  |  |  |  |  | 
5 | CC1=NC(C)SC1C (configuration not stated) |  | 1.27 | 0.857 |  | 1.31 | 0.915 |  | 1.12 | 0.668 | 1.23 and 1
6 | CC12C=CCC1C1CCC3CC(=O)CCC3(C)C1CC2 (configuration not stated) [androstenone] | 1.36 | 1.12 | 1.52 |  | 0.635 | 1.44 | 0.906 | 12.8 | 5.42 | 1.04
7 | C=C(C)C1CC=CCC1 (configuration not stated) [r-limonene] | 1.01 | 1.39 and 1.03 | 1.51 and 0.859 | 0.789 | 1.6 and 1.01 | 1.08 and 0.562 | 0.962 | 1.24 and 2.17 | 0.902 and 0.646 | 1.11 and 0.553 and 0.744
8 | CCCCCC(=O)O [caproic acid] | 0.852 | 0.233 | 0.181 | 0.634 | 0.266 | 0.949 | 0.629 | 0.885 | 0.998 | 0.9
9 | CC(C)=CCCC(C)=CC=O [citral] | 1.07 | 0.275 | 0.22 | 1.17 | 0.337 | 0.934 | 0.904 | 1.08 | 0.921 | 1.25
10 | C=CCSCC=C [diallyl sulfide] | 1.18 | 0.907 | 1.21 | 0.785 | 1.28 | 0.811 | 1.21 | 1.13 | 1.01 | 1.43
11 | CC(=O)c1ccccc1 [acetophenone] |  | 1.12 | 0.827 |  | 1.2 | 0.425 |  | 0.953 | 0.57 | 1.2 and 1.06
12 | COc1cc(C)ccc1O [2-methoxy-4-methylphenol] | 0.845 | 1.36 | 1.04 | 0.522 | 0.89 | 1.26 | 0.872 | 13.1 | 5.96 | 0.915
13 | CC12C=CCC1C1CCC3=CC(=O)CCC3(C)C1CC2 (configuration not stated) [androstadienone] | 1.1 and 1.4 | 0.818 | 1.01 |  | 1.13 | 2.08 | 1.27 and 1.16 | 2 | 6.08 | 1.14 and 1.24
14 | CCCCCC(C)=O [2-heptanone] |  | 0.91 | 0.785 |  | 0.985 | 0.393 |  | 0.568 | 0.672 | 1.16 and 0.796
15 | CCCCCCCCCC=O [decyl aldehyde] | 1.23 | 1.49 | 1.36 | 0.991 | 1.67 | 1.23 | 1.24 | 1.42 | 1.29 | 1.1
16 | CCCCCCCC=CC=O [2-decenal] | 1.61 | 1.23 | 1.88 | 1.16 | 0.797 | 3.26 | 1.36 | 21.7 | 9.87 | 2.08
17 | CC=Cc1ccc(O)c(OC)c1 [isoeugenol] | 1.18 and 2.13 | 1.69 | 1.47 | 1.55 | 1.79 | 1.15 | 1.14 and 1.62 | 0.795 | 1.61 | 1.02 and 1.79
18 | CC12CCC(C1)C(C)(C)C2=O (configuration not stated) [fenchone] | 1.09 | 0.835 | 1.06 | 0.801 | 1.14 | 1.04 | 0.983 | 1.15 | 1.16 | 1.18
19 | C=CCc1ccc(OC(C)=O)c(OC)c1 [eugenol acetate] | 1.65 | 1.52 | 1.68 | 1.99 | 1.88 | 1.54 | 1.49 | 1.78 | 1.65 | 1.79
20 | COC(=O)c1ccccc1 [methyl benzoate] |  | 0.822 | 0.707 |  | 0.827 | 0.982 |  | 2.92 | 1.26 | 0.75 and 1.12
21 | CCC1(O)C2(C)CCC(C2)C1(C)C (configuration not stated) [2-ethylfenchol] | 1.32 | 0.612 | 0.799 | 0.479 | 0.631 | 2.37 | 1.05 | 23.5 | 6.66 | 1.24
22 | COc1ccccc1O [guaiacol] | 0.999 and 1.14 | 0.778 | 0.875 | 0.817 | 0.79 | 1.53 | 1.06 and 0.92 | 1.04 | 0.996 | 0.968 and 0.969
23 | CCCC(=O)O [butyric acid] | 0.97 | 0.316 | 0.23 | 0.818 | 0.331 | 0.861 | 0.735 | 1.2 | 0.851 | 1.29
24 | CC(C)C=O [isobutyraldehyde] | 1.17 and 1.05 | 0.901 | 0.763 | 1.09 | 1.02 | 1.42 | 1.43 and 0.712 | 0.854 | 1.63 | 0.926 and 1.05
25 | CC(=O)OC1CC2CCC1(C)C2(C)C (configuration not stated) [isobornyl acetate] | 0.962 and 0.877 | 0.946 | 0.893 | 1.16 | 0.968 | 0.823 | 0.913 and 0.699 | 0.663 | 0.845 | 1.09 and 1.03
26 | CC(C)(O)CCCC1=CCC(C=O)CC1 (configuration not stated) [lyral] |  |  |  | 0.947 |  |  |  |  |  | 
27 | CCCCCOC(C)=O [n-amyl acetate] |  | 0.759 | 0.685 | 1.19 | 1.17 | 0.873 |  | 1.85 | 0.776 | 0.588 and 0.978
28 | CC(C)(C)c1ccc(CCC=O)cc1 [bourgeonal] | 1 | 0.181 | 0.167 |  | 0.232 | 0.655 | 0.851 | 0.724 | 0.846 | 1.02
29 | CC1COCc2cc3c(cc21)C(C)(C)C(C)C3(C)C (configuration not stated) [galaxolide] |  | 3.41 | 3.6 |  | 3.43 | 4.08 |  | 2.31 | 3.47 | 

2 entries from above, as a markdown table.

| Row | SMILES | odorant receptor activation (OR2A2 F280L clone 1541) | odorant receptor activation (OR2A25 clone 1387) | odorant receptor activation (OR2A4 clone 1386) | odorant receptor activation (OR2A42 clone 1565) | odorant receptor activation (OR2A5 clone 1437) | odorant receptor activation (OR2A7 clone 1077) | odorant receptor activation (OR2A7 clone 1543) | odorant receptor activation (OR2AE1 I77T clone 1079) | odorant receptor activation (OR2AG1 clone 1112) | odorant receptor activation (OR2A2 clone 1476) |
| --- | --- | --- | --- | --- | --- | --- | --- | --- | --- | --- | --- |
| 1 | CCCCCCC=O [heptaldehyde] | 1.02 and 1.49 | 0.997 and 0.814 | 0.877 and 0.879 | 0.976 | 1.17 and 0.86 | 0.549 and 1.06 | 0.972 and 0.756 | 2.29 and 1.11 | 0.622 and 1.37 |  |
| 7 | C=C(C)C1CC=CCC1 (configuration not stated) [r-limonene] | 1.01 | 1.39 and 1.03 | 1.51 and 0.859 | 0.789 | 1.6 and 1.01 | 1.08 and 0.562 | 0.962 | 1.24 and 2.17 | 0.902 and 0.646 | 1.11 and 0.553 and 0.744 |
